Data from the supplement of paper PMC10849652.
The other results are listed elsewhere or left out.

By UniProt entry, the sequences of proteins in these tests, tags left out. Where a name states a change or a piece, a line headed by the entry shows the natural chain unless it says otherwise.
UniProt Q9P2K8: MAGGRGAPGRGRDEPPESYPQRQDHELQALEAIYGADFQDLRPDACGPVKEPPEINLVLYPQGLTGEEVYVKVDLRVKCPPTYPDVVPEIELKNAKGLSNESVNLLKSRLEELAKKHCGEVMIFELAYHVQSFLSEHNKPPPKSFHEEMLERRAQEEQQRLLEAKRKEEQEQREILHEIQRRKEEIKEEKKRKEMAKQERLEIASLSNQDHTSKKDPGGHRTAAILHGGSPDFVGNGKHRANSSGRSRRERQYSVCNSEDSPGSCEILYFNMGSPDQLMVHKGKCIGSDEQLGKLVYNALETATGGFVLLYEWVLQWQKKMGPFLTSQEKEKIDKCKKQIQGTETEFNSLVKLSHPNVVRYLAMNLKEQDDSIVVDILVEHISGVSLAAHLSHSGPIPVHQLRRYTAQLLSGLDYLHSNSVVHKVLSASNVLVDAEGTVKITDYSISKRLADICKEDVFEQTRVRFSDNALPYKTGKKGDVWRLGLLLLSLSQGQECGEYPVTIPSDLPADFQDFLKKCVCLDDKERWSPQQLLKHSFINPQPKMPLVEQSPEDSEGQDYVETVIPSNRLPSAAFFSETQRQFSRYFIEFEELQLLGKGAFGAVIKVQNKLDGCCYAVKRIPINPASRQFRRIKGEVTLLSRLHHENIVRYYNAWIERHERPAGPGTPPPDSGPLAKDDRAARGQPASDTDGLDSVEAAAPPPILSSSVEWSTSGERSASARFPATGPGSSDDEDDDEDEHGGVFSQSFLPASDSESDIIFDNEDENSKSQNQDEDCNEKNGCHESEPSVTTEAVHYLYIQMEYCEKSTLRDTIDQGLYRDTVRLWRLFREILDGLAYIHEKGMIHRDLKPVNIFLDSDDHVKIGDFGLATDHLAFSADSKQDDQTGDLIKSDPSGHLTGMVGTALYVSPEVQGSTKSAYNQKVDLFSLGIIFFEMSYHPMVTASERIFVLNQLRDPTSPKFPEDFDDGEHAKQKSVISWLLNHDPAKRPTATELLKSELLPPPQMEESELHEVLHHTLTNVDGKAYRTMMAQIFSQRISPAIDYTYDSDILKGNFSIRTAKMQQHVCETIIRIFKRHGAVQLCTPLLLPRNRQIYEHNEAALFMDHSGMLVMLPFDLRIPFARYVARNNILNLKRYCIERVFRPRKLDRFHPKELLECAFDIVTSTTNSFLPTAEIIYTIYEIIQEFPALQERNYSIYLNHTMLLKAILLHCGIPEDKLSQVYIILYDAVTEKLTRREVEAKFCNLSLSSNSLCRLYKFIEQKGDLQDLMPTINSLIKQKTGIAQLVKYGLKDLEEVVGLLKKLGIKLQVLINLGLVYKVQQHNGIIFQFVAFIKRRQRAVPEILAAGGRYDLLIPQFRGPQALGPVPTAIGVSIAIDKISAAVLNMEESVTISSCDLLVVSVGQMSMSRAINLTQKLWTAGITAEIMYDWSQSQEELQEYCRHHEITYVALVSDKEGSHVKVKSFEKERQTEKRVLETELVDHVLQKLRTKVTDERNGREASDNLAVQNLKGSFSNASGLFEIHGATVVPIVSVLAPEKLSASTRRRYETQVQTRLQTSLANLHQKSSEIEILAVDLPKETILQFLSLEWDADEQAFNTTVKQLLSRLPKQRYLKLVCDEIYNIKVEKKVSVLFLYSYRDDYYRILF
UniProt P54852: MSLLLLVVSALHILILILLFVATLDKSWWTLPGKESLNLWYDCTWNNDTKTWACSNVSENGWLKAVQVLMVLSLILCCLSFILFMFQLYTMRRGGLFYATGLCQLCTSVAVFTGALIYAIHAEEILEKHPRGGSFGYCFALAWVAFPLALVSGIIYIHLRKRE
UniProt Q04637, whole entry, looked up: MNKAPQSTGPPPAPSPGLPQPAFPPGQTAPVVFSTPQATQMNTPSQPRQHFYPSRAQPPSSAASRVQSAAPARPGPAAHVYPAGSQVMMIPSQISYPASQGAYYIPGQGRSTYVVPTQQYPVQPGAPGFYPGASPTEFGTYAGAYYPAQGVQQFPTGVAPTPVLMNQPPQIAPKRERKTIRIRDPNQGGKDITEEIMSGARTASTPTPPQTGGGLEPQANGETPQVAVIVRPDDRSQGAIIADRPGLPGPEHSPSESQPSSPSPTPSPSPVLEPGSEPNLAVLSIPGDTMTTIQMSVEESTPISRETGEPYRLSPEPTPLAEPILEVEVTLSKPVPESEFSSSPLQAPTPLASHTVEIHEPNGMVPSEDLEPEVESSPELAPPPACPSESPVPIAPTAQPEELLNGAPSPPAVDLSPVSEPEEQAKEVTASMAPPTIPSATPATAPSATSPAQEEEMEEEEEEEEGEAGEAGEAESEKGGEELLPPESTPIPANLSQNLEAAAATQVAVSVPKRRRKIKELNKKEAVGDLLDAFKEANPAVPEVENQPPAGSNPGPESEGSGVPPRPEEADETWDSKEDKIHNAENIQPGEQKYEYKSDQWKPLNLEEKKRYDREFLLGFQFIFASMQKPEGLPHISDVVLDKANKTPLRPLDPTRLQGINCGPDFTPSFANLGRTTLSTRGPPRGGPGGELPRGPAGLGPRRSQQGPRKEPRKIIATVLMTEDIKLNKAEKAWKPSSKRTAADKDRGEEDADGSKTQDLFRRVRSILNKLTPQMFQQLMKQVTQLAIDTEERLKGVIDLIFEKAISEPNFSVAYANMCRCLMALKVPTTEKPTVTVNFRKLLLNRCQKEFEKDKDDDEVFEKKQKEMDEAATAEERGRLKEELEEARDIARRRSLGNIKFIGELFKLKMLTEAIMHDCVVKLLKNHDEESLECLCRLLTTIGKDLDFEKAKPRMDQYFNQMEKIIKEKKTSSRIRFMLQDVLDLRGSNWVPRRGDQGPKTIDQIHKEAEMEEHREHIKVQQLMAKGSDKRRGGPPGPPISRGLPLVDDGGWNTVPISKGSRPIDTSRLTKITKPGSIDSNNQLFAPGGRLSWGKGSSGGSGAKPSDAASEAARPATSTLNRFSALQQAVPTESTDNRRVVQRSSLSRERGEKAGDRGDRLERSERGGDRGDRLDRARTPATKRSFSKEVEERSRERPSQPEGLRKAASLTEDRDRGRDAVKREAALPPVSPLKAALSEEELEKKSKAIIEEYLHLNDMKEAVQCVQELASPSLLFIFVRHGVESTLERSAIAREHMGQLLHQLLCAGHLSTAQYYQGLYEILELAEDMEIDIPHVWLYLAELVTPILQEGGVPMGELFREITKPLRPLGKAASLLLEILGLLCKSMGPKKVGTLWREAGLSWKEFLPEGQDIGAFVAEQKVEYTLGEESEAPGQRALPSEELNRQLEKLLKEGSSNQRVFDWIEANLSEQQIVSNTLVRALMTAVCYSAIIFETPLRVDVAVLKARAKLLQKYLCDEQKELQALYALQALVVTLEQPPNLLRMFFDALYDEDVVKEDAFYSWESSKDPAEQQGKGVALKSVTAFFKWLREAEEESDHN
UniProt P50402: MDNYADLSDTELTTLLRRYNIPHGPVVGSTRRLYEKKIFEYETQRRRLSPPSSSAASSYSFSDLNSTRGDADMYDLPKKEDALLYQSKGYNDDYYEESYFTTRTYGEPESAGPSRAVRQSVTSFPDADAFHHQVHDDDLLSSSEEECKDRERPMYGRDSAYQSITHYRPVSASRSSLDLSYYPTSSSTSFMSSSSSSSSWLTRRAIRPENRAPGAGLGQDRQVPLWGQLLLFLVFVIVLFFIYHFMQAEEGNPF
UniProt Q8TE02: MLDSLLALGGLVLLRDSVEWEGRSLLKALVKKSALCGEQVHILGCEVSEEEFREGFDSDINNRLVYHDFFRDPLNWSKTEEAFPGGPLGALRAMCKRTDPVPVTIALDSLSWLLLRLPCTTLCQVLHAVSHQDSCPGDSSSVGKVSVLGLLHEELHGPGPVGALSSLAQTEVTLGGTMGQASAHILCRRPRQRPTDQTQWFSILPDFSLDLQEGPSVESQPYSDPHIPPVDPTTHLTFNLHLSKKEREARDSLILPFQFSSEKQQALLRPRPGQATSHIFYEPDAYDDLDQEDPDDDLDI
UniProt P06730, whole entry, looked up: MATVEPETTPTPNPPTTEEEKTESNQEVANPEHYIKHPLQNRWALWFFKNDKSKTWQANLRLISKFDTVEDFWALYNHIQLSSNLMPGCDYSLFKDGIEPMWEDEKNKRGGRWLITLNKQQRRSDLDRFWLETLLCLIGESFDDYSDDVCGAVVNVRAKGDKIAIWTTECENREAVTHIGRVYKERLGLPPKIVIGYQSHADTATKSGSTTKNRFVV
UniProt Q9NR50: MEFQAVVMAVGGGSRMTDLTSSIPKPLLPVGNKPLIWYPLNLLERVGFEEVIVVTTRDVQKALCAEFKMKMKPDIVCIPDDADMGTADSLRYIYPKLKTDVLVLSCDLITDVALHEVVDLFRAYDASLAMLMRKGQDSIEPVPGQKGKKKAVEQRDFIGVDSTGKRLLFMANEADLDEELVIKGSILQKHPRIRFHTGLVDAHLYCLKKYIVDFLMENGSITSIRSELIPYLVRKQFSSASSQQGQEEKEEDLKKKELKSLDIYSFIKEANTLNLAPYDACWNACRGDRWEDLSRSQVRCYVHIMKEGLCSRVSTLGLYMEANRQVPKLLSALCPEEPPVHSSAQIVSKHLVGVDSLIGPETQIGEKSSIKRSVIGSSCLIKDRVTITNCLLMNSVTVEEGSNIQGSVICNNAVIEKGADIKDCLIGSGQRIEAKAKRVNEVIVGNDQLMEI
UniProt O75356: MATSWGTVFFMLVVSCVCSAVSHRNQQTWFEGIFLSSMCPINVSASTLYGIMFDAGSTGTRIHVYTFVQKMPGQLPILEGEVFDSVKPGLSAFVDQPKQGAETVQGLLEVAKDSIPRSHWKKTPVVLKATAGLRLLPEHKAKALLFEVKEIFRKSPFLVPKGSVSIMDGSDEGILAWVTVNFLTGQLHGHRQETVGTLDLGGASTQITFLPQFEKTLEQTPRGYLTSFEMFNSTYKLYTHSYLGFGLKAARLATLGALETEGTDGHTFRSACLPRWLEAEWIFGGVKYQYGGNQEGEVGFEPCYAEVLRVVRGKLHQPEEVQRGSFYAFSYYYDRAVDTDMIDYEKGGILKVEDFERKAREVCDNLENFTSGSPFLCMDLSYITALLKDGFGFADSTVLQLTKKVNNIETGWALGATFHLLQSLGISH
UniProt Q8N9N8: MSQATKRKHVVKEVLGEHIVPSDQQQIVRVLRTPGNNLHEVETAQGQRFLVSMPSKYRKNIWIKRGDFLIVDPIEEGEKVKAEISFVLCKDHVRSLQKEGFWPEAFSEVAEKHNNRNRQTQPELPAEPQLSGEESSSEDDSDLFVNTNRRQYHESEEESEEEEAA
UniProt Q92979: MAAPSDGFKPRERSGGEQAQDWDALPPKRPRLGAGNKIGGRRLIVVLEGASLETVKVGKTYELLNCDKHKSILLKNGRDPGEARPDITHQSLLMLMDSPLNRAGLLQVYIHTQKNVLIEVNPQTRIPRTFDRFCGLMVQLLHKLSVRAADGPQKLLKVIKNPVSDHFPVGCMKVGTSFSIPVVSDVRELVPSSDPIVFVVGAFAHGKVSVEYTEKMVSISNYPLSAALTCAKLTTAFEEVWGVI
UniProt Q7Z2Z2: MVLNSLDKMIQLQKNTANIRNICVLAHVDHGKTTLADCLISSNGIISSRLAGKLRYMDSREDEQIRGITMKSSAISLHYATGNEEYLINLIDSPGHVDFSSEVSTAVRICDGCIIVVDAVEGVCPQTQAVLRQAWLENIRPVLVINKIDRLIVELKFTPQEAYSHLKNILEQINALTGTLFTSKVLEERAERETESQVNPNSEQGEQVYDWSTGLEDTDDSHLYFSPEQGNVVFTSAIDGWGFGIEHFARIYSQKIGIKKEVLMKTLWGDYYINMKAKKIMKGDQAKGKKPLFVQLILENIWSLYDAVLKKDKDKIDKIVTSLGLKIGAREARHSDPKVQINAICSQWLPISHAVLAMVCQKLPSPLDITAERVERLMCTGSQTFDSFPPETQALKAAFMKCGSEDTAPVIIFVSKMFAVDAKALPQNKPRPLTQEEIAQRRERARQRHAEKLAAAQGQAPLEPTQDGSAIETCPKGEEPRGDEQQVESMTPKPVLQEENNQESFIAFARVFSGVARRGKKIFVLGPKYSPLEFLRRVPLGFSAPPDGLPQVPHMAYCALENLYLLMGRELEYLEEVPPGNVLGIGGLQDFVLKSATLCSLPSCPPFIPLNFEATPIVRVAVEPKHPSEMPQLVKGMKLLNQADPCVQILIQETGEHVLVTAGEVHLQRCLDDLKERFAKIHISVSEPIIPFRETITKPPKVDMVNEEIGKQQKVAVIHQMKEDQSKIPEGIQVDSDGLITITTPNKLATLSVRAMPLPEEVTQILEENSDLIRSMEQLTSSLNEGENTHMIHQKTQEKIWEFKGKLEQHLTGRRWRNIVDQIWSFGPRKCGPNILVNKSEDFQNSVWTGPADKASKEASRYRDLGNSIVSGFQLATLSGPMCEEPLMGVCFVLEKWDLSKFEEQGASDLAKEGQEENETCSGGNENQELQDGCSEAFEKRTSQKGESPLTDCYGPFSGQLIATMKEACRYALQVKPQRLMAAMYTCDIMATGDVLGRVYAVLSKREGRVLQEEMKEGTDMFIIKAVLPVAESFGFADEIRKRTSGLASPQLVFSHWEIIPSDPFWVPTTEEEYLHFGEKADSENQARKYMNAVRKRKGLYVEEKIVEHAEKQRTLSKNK

Legend:
Assay in all cases: log2 fold change, soluble protein after heating vs DMSO (PISA); higher = thermal stabilisation; K562 cells, 10 uM, 30 min; active = over 0.2 and 3.5 SD of the protein, either way, in both replicates (recomputed)
[1] = compound: CC1=C(C=C(C=C1)NC(=O)C2=CC(=CC=C2)C(C)(C)C#N)NC3=CC4=C(C=C3)N=CN(C4=O)C
Procedure, shortened: (§1)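 Aliquots of K562 cells (2×10^6 cells/mL) treated with 10 μM compound for 30 min were heated for 3 min over 48°C-58°C. After pooling and extraction in PBS with 0.5% NP-40 at 4°C, soluble protein from a 21,000xg, 90 min spin was quantified by TMTpro 16plex LC-MS/MS with channel sums equalised. Thermal stability is expressed against control samples, from duplicates, as a log2 fold change.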

[2] = compound: CC1=C(C=C(C=C1)NC(=O)C2=CC(=CC=C2)N(C)C)NC(=O)C3=CC=C(C=C3)O
Procedure, shortened: as §1

[3] = compound: CC1=CC=C(C=C1)SC2=C3C=C(SC3=CN=C2)C(=O)N
Procedure, shortened: as §1

[4] = compound: CC1=NC(=CC=C1)C2=C(N=C(N2)C(C)(C)C)C3=CC4=NC=CN=C4C=C3
Procedure, shortened: as §1

[5] = compound: CCCCN(Cc1ccc(C(=O)NO)cc1)C(=O)Nc1ccccc1 [Nexturastat A]
Procedure, shortened: as §1

[6] = compound: CCCS(=O)(=O)Nc1ccc(F)c(C(=O)c2c[nH]c3ncc(-c4ccc(Cl)cc4)cc23)c1F [vemurafenib]
Procedure, shortened: as §1

[7] = compound: CCCS(=O)(=O)Nc1ccc(F)c(C(=O)c2c[nH]c3ncc(Cl)cc23)c1F
Procedure, shortened: as §1

[8] = compound: CCCc1cc(C)[nH]c(=O)c1CNC(=O)c1cc(-c2ccnc(N3CCN(C)CC3)c2)cc2c1cnn2C(C)C
Procedure, shortened: as §1

[9] = compound: CCN(CC)Cc1ccc2cc(COC(=O)Nc3ccc(C(=O)NO)cc3)ccc2c1 [givinostat]
Procedure, shortened: as §1

[10] = compound: CCN(CCCOc1ccc2c(Nc3cc(CC(=O)Nc4cccc(F)c4)[nH]n3)ncnc2c1)CCOP(=O)(O)O [barasertib]
Procedure, shortened: as §1

[11] = compound: CC[C@@H]1C(=O)N(C)c2cnc(Nc3ccc(C(=O)NC4CCN(C)CC4)cc3OC)nc2N1C1CCCC1
Procedure, shortened: as §1

[12] = compound: CC[C@@H]1C(=O)N(C)c2cnc(Nc3ccc(C(=O)N[C@H]4CC[C@H](N5CCN(CC6CC6)CC5)CC4)cc3OC)nc2N1C(C)C [volasertib]
Procedure, shortened: as §1

[13] = compound: CC[C@H](C)N1C=C(C2=C(C=C(C=C21)C3=CN=C(C=C3)N4CCNCC4)C(=O)NCC5=C(C=C(NC5=O)C)C)C
Procedure, shortened: as §1

[14] = compound: CC[C@H](C)[C@@H](C(=O)N[C@@H]([C@@H](C)O)C(=O)N[C@@H](CC(C)C)C(=O)[C@]1(CO1)C)NC(=O)[C@H]([C@@H](C)CC)N(C)C(=O)C [epoxomicin]
Procedure, shortened: as §1

[15] = compound: CCn1cc(-c2ccnc3[nH]c(-c4cccc(CN(C)C)c4)cc23)c(-c2ccc(NC(=O)N(C)C)cc2)n1
Procedure, shortened: as §1

[16] = compound: CN(C)CC(=O)Nc1ccc2[nH]c(=O)c3ccccc3c2c1
Procedure, shortened: as §1

[17] = compound: CN1C2=C(C3=C1C(=O)N(N=C3)CC4=CC(=CC=C4)N)SC(=C2)S(=O)C
Procedure, shortened: as §1

[18] = compound: CN1CCC(CNc2ccc3ncc(-c4cccc(OC(F)(F)F)c4)n3n2)CC1
Procedure, shortened: as §1

[19] = compound: CCn1c(C(=O)N(C2CC2)C2CC2)cc2c3c(ncn3C)c(Nc3cc(C)n(C)n3)nc21
Procedure, shortened: as §1

[20] = compound: CN(CCOC1=CC=C(C=C1)C[C@H]2C(=O)NC(=O)S2)C3=CC=CC=N3 (racemic) [rosiglitazone]
Procedure, shortened: as §1

| Target | log2 fold change [1] | log2 fold change [2] | log2 fold change [3] | log2 fold change [4] | log2 fold change [5] | log2 fold change [6] | log2 fold change [7] | log2 fold change [8] | log2 fold change [9] | log2 fold change [10] | log2 fold change [11] | log2 fold change [12] | log2 fold change [13] | log2 fold change [14] | log2 fold change [15] | log2 fold change [16] | log2 fold change [17] | log2 fold change [18] | log2 fold change [19] | log2 fold change [20] |
| --- | --- | --- | --- | --- | --- | --- | --- | --- | --- | --- | --- | --- | --- | --- | --- | --- | --- | --- | --- | --- |
| EEF1G isoform 2 (UniProt P26641) | inactive: 0.035 | inactive: -0.015 | inactive: 0.014 | inactive: 0.049 | inactive: -0.062 | inactive: 0.07 | inactive: 0.101 | inactive: 0.095 | inactive: -0.013 | inactive: 0.037 | inactive: -0.164 | active: -0.364 | inactive: 0.075 | inactive: 0.008 | inactive: -0.005 | inactive: 0.022 | inactive: 0.011 | inactive: 0.016 |  |  |
| EIF1AX (UniProt P47813) | inactive: 0.058 | inactive: -0.015 | inactive: -0.025 | inactive: 0.065 | inactive: -0.041 | inactive: 0.015 | inactive: 0.061 | inactive: -0.047 | inactive: 0.007 | inactive: 0.003 | inactive: 0.027 | inactive: 0.065 | inactive: 0.009 | inactive: 0.013 | inactive: -0.033 | inactive: -0.006 | inactive: -0.09 | inactive: 0.091 | inactive: 0.034 | inactive: -0.042 |
| EIF2AK4 (UniProt Q9P2K8) | inactive: 0.051 | inactive: -0.054 | inactive: 0.054 | inactive: -0.053 | inactive: 0.063 | inactive: -0.002 | inactive: -0.012 | inactive: -0.195 | inactive: 0.307 | inactive: 0.03 | inactive: 0.099 | inactive: -0.157 | inactive: 0.03 | inactive: -0.049 | inactive: -0.038 | inactive: 0.138 | inactive: 0.109 | inactive: -0.154 | inactive: 0.028 | inactive: 0.051 |
| EMP3 (UniProt P54852) | inactive: -0.012 | inactive: -0.023 | inactive: 0.015 | inactive: 0 | inactive: 0.012 | inactive: -0.037 | inactive: -0.033 | inactive: -0.635 | inactive: 0.001 | inactive: -0.061 | inactive: 0.25 | inactive: 0.098 | inactive: -0.122 | inactive: -0.205 |  | inactive: 0.126 | inactive: -0.084 |  | inactive: 0.045 | inactive: 0.028 |
| EEF1A2 (UniProt Q05639) | inactive: -0.024 | inactive: 0.002 | inactive: 0.009 | inactive: 0.011 | inactive: -0.069 | inactive: 0.026 | inactive: 0 | inactive: -0.035 | inactive: -0.011 | inactive: 0.007 | inactive: 0.012 | inactive: 0.05 | inactive: 0.005 | inactive: -0.014 | inactive: -0.006 | inactive: -0.038 | inactive: -0.089 | inactive: -0.047 | inactive: 0.027 | inactive: 0.05 |
| EIF4G1 isoform 8 (UniProt Q04637) | inactive: -0.028 | inactive: -0.011 | inactive: 0.004 | inactive: 0.006 | inactive: 0.169 | inactive: 0.013 | inactive: 0.028 | inactive: 0.119 | inactive: 0.057 | inactive: 0.067 | inactive: -0.114 | inactive: -0.487 | inactive: 0.174 | inactive: 0.016 | inactive: 0.005 | inactive: 0.031 | inactive: 0.181 | inactive: -0.425 |  |  |
| EMD (UniProt P50402) | inactive: -0.056 | inactive: 0.011 | inactive: -0.076 | inactive: -0.04 | inactive: 0.059 | inactive: -0.015 | inactive: 0.021 | inactive: -0.092 | inactive: 0.002 | inactive: 0.002 | inactive: -0.127 | active: -0.273 | inactive: 0 | inactive: -0.065 | inactive: 0 | inactive: -0.018 | inactive: 0.003 | inactive: -0.078 |  |  |
| ELP5 isoform 4 (UniProt Q8TE02) | inactive: -0.062 | inactive: 0.013 | inactive: -0.076 | inactive: -0.025 | inactive: 0.087 | inactive: -0.049 | inactive: -0.074 | inactive: -0.084 | inactive: 0.011 | inactive: -0.012 | inactive: 0.085 | inactive: 0.102 | inactive: -0.01 | inactive: -0.019 | inactive: 0.001 | inactive: -0.04 | inactive: -0.042 | inactive: 0.029 | inactive: 0.056 | inactive: -0.025 |
| EIF4E isoform 2 (UniProt P06730) | inactive: 0.044 | inactive: -0.035 | inactive: 0.008 | inactive: 0.02 | inactive: -0.078 | inactive: 0.078 | inactive: 0.109 | inactive: -0.086 | inactive: 0.012 | inactive: -0.07 | inactive: -0.012 | inactive: -0.044 | inactive: 0.021 | inactive: 0.053 | inactive: -0.061 | inactive: 0.036 | inactive: -0.146 | inactive: 0.199 |  |  |
| EIF2B3 (UniProt Q9NR50) | inactive: 0.016 | inactive: -0.009 | inactive: -0.004 | inactive: 0.012 | inactive: 0.12 | inactive: 0.008 | inactive: 0.032 | inactive: 0.038 | inactive: 0.007 | inactive: -0.008 | inactive: -0.03 | inactive: -0.109 | inactive: 0.014 | inactive: 0.024 | inactive: 0.04 | inactive: -0.014 | inactive: 0.006 | inactive: 0.027 | inactive: -0.021 | inactive: 0.027 |
| ENTPD5 (UniProt O75356) | inactive: -0.04 | inactive: -0.049 | inactive: -0.035 | inactive: 0.043 | inactive: -0.023 | inactive: -0.026 | inactive: -0.018 | inactive: 0.049 | inactive: -0.014 | inactive: -0.039 | inactive: 0.035 | inactive: -0.013 | inactive: 0.017 | inactive: 0.003 |  | inactive: -0.069 | inactive: -0.011 |  | inactive: 0.04 | inactive: 0.053 |
| ELOF1 (UniProt P60002) | inactive: 0.061 | inactive: -0.066 | inactive: -0.084 | inactive: 0.055 | inactive: 0.073 | inactive: -0.065 | inactive: -0.052 | inactive: -0.046 | inactive: -0.424 | inactive: -0.018 | inactive: -0.097 | inactive: 0.099 | inactive: 0.02 | inactive: -0.045 | inactive: 0.169 | inactive: 0.058 | inactive: 0.026 | inactive: 0.225 | inactive: -0.064 | inactive: -0.079 |
| EIF3J (UniProt O75822) | inactive: 0.01 | inactive: -0.026 | inactive: -0.005 | inactive: 0.039 | inactive: -0.068 | inactive: 0.05 | inactive: -0.022 | inactive: 0.004 | inactive: 0.011 | inactive: 0.046 | inactive: -0.061 | inactive: 0.005 | inactive: 0.011 | inactive: 0.055 | inactive: 0.001 | inactive: -0.008 | inactive: -0.061 | inactive: 0.226 |  |  |
| EIF1AD (UniProt Q8N9N8) | inactive: -0.021 | inactive: -0.018 | inactive: 0.029 | inactive: 0.022 | inactive: -0.171 | inactive: -0.004 | inactive: 0.029 | inactive: -0.022 | inactive: -0.024 | inactive: -0.003 | inactive: -0.002 | inactive: -0.003 | inactive: -0.03 | inactive: 0.055 | inactive: -0.049 | inactive: -0.01 | inactive: -0.019 | inactive: -0.048 | inactive: 0.011 | inactive: 0.005 |
| EMG1 (UniProt Q92979) | inactive: 0.04 | inactive: 0.007 | inactive: -0.044 | inactive: 0.038 | inactive: 0.091 | inactive: -0.034 | inactive: 0 | inactive: -0.001 | inactive: -0.089 | inactive: -0.091 | inactive: 0.087 | inactive: 0.082 | inactive: -0.024 | inactive: -0.064 | inactive: 0.067 | inactive: -0.07 | inactive: 0.044 | inactive: 0.113 | inactive: 0.031 | inactive: -0.081 |
| EFL1 (UniProt Q7Z2Z2) | inactive: -0.025 | inactive: 0.004 | inactive: 0.016 | inactive: 0.012 | inactive: -0.11 | inactive: 0.04 | inactive: 0.036 | inactive: 0.008 | inactive: 0.004 | inactive: 0.05 | inactive: -0.024 | active: -0.245 | inactive: 0.014 | inactive: 0.008 | inactive: -0.006 | inactive: 0.025 | inactive: -0.037 | inactive: -0.091 |  |  |
| EEF1AKNMT (UniProt Q8N6R0) | inactive: 0.078 | inactive: -0.037 | inactive: 0.031 | inactive: 0.026 | inactive: -0.026 | inactive: 0.084 | inactive: 0.062 | inactive: 0.075 | inactive: 0.04 | inactive: 0.076 | inactive: -0.082 | active: -0.564 | inactive: 0.111 | inactive: 0.012 | inactive: 0.134 | inactive: 0.092 | inactive: 0.075 | inactive: -0.095 |  |  |

Part of the list above, as tab-separated lines.
Target	log2 fold change [1]	log2 fold change [2]	log2 fold change [3]	log2 fold change [4]	log2 fold change [5]	log2 fold change [6]	log2 fold change [7]	log2 fold change [8]	log2 fold change [9]	log2 fold change [10]	log2 fold change [11]	log2 fold change [12]	log2 fold change [13]	log2 fold change [14]	log2 fold change [15]	log2 fold change [16]	log2 fold change [17]	log2 fold change [18]	log2 fold change [19]	log2 fold change [20]
EEF1A2 (UniProt Q05639)	inactive: -0.024	inactive: 0.002	inactive: 0.009	inactive: 0.011	inactive: -0.069	inactive: 0.026	inactive: 0	inactive: -0.035	inactive: -0.011	inactive: 0.007	inactive: 0.012	inactive: 0.05	inactive: 0.005	inactive: -0.014	inactive: -0.006	inactive: -0.038	inactive: -0.089	inactive: -0.047	inactive: 0.027	inactive: 0.05
EMG1 (UniProt Q92979)	inactive: 0.04	inactive: 0.007	inactive: -0.044	inactive: 0.038	inactive: 0.091	inactive: -0.034	inactive: 0	inactive: -0.001	inactive: -0.089	inactive: -0.091	inactive: 0.087	inactive: 0.082	inactive: -0.024	inactive: -0.064	inactive: 0.067	inactive: -0.07	inactive: 0.044	inactive: 0.113	inactive: 0.031	inactive: -0.081
